Source: patent US11628226B2, “Methods and gene therapy constructs for treating GM2 gangliosidoses” (priority 2016, dated 2023)
For at least one compound, name, drawing or mass did not settle the structure.

Legend:
Assay type in all cases: in vivo
[1] = test system: GM2 ganglioside storage in mouse brain; assay: GM2 ganglioside levels in midbrain by thin layer chromatography; details: 16-week midbrain, drug on its own or in addition to HEXB-HEXA
Protocol: Animal tissues were collected at designated 16 week end points and long term humane end points. The humane end points were determined by either […] loss of peak body weight or an inability to right itself in 10 seconds. Euthanization was carried out via CO2 asphyxiation followed by cardiac puncture and perfusion with 10 mL of chilled PBS. For biochemical analysis sections of the forebrain, midbrain, hindbrain, cervical spinal cord, and lumbar spinal cord were collected along with the heart, lungs, liver, spleen, kidney, gonads, and a section skeletal muscle. These were all frozen immediately for further processing. For histological purposes, sections of the midbrain and liver were collected, fixed in 4% paraformaldehyde overnight and then immersed in 100% ethanol until sent to the Queen's University Histology department for paraffin embedding. Additional midbrain sections were collected from a number of mice and frozen in liquid nitrogen. Blood was collected via the saphenous vein on a monthly basis starting at 8 weeks and continuing until the humane end point. Additionally, blood was collected via the cardiac puncture during euthanization. Serum was separated from blood samples by centrifugation of 4000 rpm for 10 min and frozen immediately for storage. […]

[2] = test system: Sandhoff mouse (hexb-/-); assay: Open field test of motor activity in SD mice; details: drug alone, week 16
Protocol: Behavioural testing was carried out on a bi-weekly basis from the age of eight weeks until each end point. The behavioural testing was done in three different parts and always assessed in the morning of the 12 hour light cycle.
Open Field Test: Used to assess overall locomotion and activity levels. The mouse was placed in a 40 cm×40 cm arena with walls. Time moving, rearing activity and the distance travelled were all electronically recorded by an ActiMot system. Speed was calculated by dividing the distance travelled by the time moving. Each mouse underwent one five minute trial.
To determine if the administration of AAV9-HexB-HexA improved motor activity in the neonatally treated SD mice, distance travelled in the 5-minute open-field test was analyzed. Testing began at eight weeks, when motor deterioration in SD mice begins to show and continued on a bi-weekly basis to 24 weeks. […] In FIG. 4, values at each point represent the mean.

[3] = test system: Sandhoff mouse (hexb-/-); assay: Survival of SD mice (Kaplan-Meier, humane end point); details: AAV9-HEXB-HEXA neonatal day one 2×10^13 vg/kg plus daily oral drug from eight weeks
Protocol: The hexb−/− experimental mice were obtained from Jackson Laboratories. From these, a colony was established at Queen's University through heterozygous breeding (hexb+/−). Genotyping of the mice was carried out via PCR amplification from animal ear punches taken at the time of weaning (three weeks of age). Experimental animals were obtained through mutant cross breeding (hexb−/−). The mice were maintained on a 12-hour light cycle from 7 am to 7 pm. All experimental protocols and procedures were performed in accordance with and were approved by the Queen's University Animal Care Committee.
Neonatal mice were intravenously injected with the ssAAV/HEXB-HEXA vector or a vehicle injection through the superficial temporal vein on day 0-1. Each treated mouse received an injection of 2.04×10^10 vg/mouse in a volume of 50 uL PBS with […] NaCl and 5% sorbitol (vehicle). Untreated mice received an injection of 50 uL vehicle. During the injections, the dames were removed from the pups and placed in a clean cage. […] Pups were then monitored closely for several days to ensure survival. […]
Animal tissues were collected at designated 16 week end points and long term humane end points. The humane end points were determined by either […] loss of peak body weight or an inability to right itself in 10 seconds. […]
Survival was analyzed with the log-rank (Mantel-Cox) test. […]

With `CCc1nc(N)nc(N)c1-c1ccc(Cl)cc1` [pyrimethamine] the “Additional decrease in GM2 ganglioside build-up” value [1] was “No additional decrease”, the “Open field test, time moving vs heterozygous mice” value [2] was “performed significantly worse than the heterozygous mice” and the “Survival in conjunction with HEXB-HEXA” value [3] was “no statistically significant effect”.
